No constants are given. Whether binding was seen depends on the method and setting. Some results given as binding are weak or reduced against the parent protein; the word gives no strength.
B1: FlgK hook-filament junction protein (C. jejuni) (protein, UniProt Q0P8E9 1-608)
chain: MGIFGTLYTGVTGLKASEVQIATTGNNISNANATFYTRQRVVQTTNGYITTGGVQVGTGTAVESIVRLHDEYSYYKLKGASTQLEYTKYMASTLQEIAQRFPDLQNTGILQDLENYNKAWNDFASNPNENATKIALVKASQTLTESVNNTFATLDKIQKKVNDDIKNTVDEINRIGEEIATINKQIYGQEALPTEHANELRDRRDELELTLSKLVSAVASKNEINQDNRLDTTITDPGHQYNLSIEGFSIVDGINFHPLKLDYDDKNKSYSIYYETPDEKVRDLTAKISGGQLGAQLDLRGRNYSKSEGKYEDGIIQGYMDSLDTFAKTMINETNNLYASSAKSSVTSDYLSGLKGDIPLVNYDRTIQPGSFDIVIYDDKGDKKLTKTITIDVNTTMNDIMRQINANTDDNDNKNSNDDVDDHINASFSYDAKTGDGLFQINAKSGFKVAIEDKGTNFAGAFSIGGFFSGTDASDMKVKDSILNDPSTVRASSNGVDSGNDMANKIIQLQYKKVNFYNEDGTIDNLTMEEYYRKLTGKIASDGENNNVVNSSNETLYNSVYSEYQSKSGVNTNEELAALIQYQSSYGAAAKIVSTVDQMLDTLLGLKS
B2: FliD filament cap protein (C. jejuni) (protein, UniProt Q9PHW6 1-642)
chain: MAFGSLSSLGFGSGVLTQDTIDKLKEAEQKARIDPYTKKIEENTTKQKDLTEIKTKLLSFQTAVSSLADATVFAKRKVVGSISDNPPASLTVNSGVALQSMNINVTQLAQKDVYQSKGLANDGGFVNAQLNGTADLTFFSNGKEYTVTVDKNTTYRDLADKINEASGGEIVAKIVNTGEKGTPYRLTLTSKETGEDSAISFYAGKKDSNGKYQKDINAEKIFDDLGWGLDVSASIDPDKDKKGYGIKDASLHIQTAQNAEFTLDGIKMFRSSNTVTDLGVGMTLTLNKTGEINFDVQQDFEGVTKAMQDLVDAYNDLVTNLNAATDYNSETGTKGTLQGISEVNSIRSSILADLFDSQVVDGTTEDANGNKVNTKVMLSMQDFGLSLNDAGTLSFDSSKFEQKVKEDPDSTESFFSNITKYEDINHTGEVIKTGSLSKYLNSNGGNTNGLEFKPGDFTIVFNNQTYDLSKNSDGTNFKLTGKTEEELLQNLANHINSKGIEGLKVKVESYNQNNVTGFRLNFSGDGSSDFSIKGDANILKELGLSDVNITSKPIEGKGIFSKLKATLQEMTGKDGSITKYDESLTNDIKSLNTSKDSTQAMIDTRYDTMANQWLQYESILNKLNQQLNTVTNMINAANNSNN

Molecular target: T1, FlgL hook-filament junction protein (C. jejuni) (C. jejuni)
T1 sequence: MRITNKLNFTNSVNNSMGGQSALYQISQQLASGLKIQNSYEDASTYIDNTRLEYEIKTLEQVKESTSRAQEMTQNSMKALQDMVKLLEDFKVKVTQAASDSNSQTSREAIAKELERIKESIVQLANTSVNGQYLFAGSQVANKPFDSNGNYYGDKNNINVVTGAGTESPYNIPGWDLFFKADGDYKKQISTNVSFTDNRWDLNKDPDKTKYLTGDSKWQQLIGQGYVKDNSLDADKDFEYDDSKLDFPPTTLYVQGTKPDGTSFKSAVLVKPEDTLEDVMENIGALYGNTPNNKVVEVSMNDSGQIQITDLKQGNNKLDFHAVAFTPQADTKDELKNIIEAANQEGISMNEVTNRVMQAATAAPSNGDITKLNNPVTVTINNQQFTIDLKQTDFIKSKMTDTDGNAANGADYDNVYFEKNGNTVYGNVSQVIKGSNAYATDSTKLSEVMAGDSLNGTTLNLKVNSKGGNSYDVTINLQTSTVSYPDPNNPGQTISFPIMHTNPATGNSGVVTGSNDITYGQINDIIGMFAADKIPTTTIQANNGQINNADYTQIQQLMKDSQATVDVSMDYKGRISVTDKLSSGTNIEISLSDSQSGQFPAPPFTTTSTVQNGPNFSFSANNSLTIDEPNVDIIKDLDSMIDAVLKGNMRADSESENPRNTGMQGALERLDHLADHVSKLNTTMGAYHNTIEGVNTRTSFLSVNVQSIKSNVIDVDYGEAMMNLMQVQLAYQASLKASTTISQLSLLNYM
Experiment: cryo-EM structure; single-particle cryo-EM of flagellar hook tips on C. jejuni ΔflhG ΔflaAB minicells (no filament); cap-HFJ map at 6.5 Å; model of 11 FlgK, 11 FlgL and 5 FliD fitted as rigid bodies and refined

Binder | binding
B1 | binds
B2 | binds

Source: PMC12221982
